Where two headings read alike, the source gives them in different places. These are yes or no findings as the source states them, for the method shown. For some of these results: In cells and extracts the contact can be indirect. Some entries that bind do so weakly or less than the wild type. Tags and fused reporters may be left off the sequences shown.

Sequences of proteins named here, by UniProt entry; tags and fusion partners are left off.
UniProt Q7XA73: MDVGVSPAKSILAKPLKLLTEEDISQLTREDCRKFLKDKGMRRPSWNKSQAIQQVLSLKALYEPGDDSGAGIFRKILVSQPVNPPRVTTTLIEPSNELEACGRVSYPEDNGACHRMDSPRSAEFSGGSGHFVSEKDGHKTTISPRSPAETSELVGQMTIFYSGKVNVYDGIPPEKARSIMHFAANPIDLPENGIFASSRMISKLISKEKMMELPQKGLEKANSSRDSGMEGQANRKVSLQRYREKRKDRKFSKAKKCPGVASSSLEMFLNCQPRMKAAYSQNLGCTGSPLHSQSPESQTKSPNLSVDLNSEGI
UniProt Q8GY55: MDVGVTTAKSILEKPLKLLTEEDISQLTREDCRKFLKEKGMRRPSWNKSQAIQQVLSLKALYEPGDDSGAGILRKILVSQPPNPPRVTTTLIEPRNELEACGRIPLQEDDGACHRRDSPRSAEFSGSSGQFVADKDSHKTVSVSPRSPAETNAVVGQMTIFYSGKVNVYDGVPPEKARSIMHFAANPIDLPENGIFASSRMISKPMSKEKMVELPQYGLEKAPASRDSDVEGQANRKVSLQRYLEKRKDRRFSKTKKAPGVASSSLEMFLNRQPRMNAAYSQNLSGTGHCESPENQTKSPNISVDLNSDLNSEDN

For assay [1], the target named is T1, GAL4-BD-TIFY8 (Arabidopsis thaliana) (UniProt Q84MB2).
T1 sequence: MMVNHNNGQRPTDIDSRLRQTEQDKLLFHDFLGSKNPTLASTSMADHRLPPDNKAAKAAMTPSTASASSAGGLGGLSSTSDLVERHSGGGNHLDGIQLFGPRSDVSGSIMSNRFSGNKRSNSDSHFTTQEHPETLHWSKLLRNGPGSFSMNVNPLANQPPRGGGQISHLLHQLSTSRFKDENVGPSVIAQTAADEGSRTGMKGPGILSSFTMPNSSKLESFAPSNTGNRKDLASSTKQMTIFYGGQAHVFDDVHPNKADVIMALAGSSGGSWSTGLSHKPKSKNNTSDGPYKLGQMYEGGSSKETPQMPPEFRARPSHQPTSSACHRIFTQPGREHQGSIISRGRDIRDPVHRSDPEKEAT
Kind of assay: two-hybrid; Matchmaker Gold Yeast Two-Hybrid System; bait as GAL4-BD fusion (pGBKT7) in strain Y2H Gold, prey as GAL4-AD fusion (pGADT7) in strain Y187, mated; serial 1:10 dilutions spotted on DDO control and selective media of increasing stringency (TDO, DDO/X/AbA, QDO, QDO/X, QDO/X/AbA); growth after four to five days at 30 °C.

Assay [2] concerns the target T2, GAL4-BD-REV (REVOLUTA fused to the GAL4 DNA-binding domain) (Arabidopsis thaliana) (UniProt Q9SE43).
T2 sequence: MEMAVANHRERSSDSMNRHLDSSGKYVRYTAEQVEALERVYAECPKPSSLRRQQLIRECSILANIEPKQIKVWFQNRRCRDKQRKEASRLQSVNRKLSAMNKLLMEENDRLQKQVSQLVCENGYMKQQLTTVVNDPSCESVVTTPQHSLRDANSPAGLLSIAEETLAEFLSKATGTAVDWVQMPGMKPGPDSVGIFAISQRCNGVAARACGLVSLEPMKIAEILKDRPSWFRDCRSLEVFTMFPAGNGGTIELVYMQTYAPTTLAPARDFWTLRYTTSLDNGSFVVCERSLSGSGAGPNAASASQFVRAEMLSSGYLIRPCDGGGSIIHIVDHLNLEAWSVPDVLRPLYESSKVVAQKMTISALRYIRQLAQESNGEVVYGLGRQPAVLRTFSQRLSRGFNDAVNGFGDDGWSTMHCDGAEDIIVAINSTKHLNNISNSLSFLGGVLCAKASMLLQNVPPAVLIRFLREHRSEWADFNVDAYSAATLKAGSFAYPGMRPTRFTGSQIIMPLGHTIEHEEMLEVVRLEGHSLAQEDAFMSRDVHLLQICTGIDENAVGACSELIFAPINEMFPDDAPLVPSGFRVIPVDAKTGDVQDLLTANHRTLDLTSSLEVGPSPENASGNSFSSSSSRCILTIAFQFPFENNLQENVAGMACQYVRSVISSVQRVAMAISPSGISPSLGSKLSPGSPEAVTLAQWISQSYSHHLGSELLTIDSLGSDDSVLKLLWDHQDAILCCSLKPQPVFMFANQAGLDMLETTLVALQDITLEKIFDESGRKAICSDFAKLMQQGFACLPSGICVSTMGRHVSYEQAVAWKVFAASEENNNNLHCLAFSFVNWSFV
Described as above.

Assay [3] has as its target T2, GAL4-BD-REV (REVOLUTA fused to the GAL4 DNA-binding domain) (Arabidopsis thaliana). The assay is described as above. This is another data set of the same source.
Assay [4] deals with T3, REV fused to one half of the yellow fluorescent protein (BiFC construct) (Arabidopsis thaliana) (UniProt Q9SE43).
T3 sequence: T2 sequence
In words: split reporter; ratiometric BiFC, both partners and RFP on one vector (pBiFCt-2in1-NN, 35S promoter); Arabidopsis protoplasts read by flow cytometry (CytoFLEX) 1 day after transfection, and Agrobacterium-infiltrated Nicotiana benthamiana leaves read by confocal microscopy 2 days later. On the technique in general: A flow cytometer gives signals particle by particle.

In the case of “PEAPOD1 (PPD1) fused with GAL4-AD (from UniProt Q7XA73 1-313)”, the binding entry in assay [1] and in assay [2] was “binds” throughout.
As to “PEAPOD2 (PPD2) full length fused with GAL4-AD (from UniProt Q8GY55 1-315)”, the binding entry in assay [1] and in assay [2] was “binds” throughout.

B1: TIFY8 full length (1 to 361aa) fused with GAL4-AD (protein, UniProt Q84MB2 1-361)
chain: T1 sequence
As to B1, in assay [3], the binding result was “binds”.

B2: TIFY8 (full length) fused to one half of the yellow fluorescent protein (BiFC construct) (protein, UniProt Q84MB2 1-361)
chain: T1 sequence
B2: the binding entry in assay [4] is “binds”.

B3: GAL4-AD-JAZ10 (protein, UniProt Q93ZM9 1-197)
chain: MSKATIELDFLGLEKKQTNNAPKPKFQKFLDRRRSFRDIQGAISKIDPEIIKSLLASTGNNSDSSAKSRSVPSTPREDQPQIPISPVHASLARSSTELVSGTVPMTIFYNGSVSVFQVSRNKAGEIMKVANEAASKKDESSMETDLSVILPTTLRPKLFGQNLEGDLPIARRKSLQRFLEKRKERLVSTSPYYPTSA
Consider B3, for which the binding entry in assay [3] was “binds”.

B4: TIFY8-N (1 to 229aa) fused with GAL4-AD (domain or fragment, UniProt Q84MB2 1-229)
chain: MMVNHNNGQRPTDIDSRLRQTEQDKLLFHDFLGSKNPTLASTSMADHRLPPDNKAAKAAMTPSTASASSAGGLGGLSSTSDLVERHSGGGNHLDGIQLFGPRSDVSGSIMSNRFSGNKRSNSDSHFTTQEHPETLHWSKLLRNGPGSFSMNVNPLANQPPRGGGQISHLLHQLSTSRFKDENVGPSVIAQTAADEGSRTGMKGPGILSSFTMPNSSKLESFAPSNTGNR
With B4, the binding result in assay [3] is recorded as “no binding”.

B5: TIFY8-C3 (176 to 229aa) fused with GAL4-AD (domain or fragment, UniProt Q84MB2 176-229)
chain: SRFKDENVGPSVIAQTAADEGSRTGMKGPGILSSFTMPNSSKLESFAPSNTGNR
As to B5, in assay [3], the binding entry was “no binding”.

B6: GAL4-AD-JAZ9 (protein, UniProt Q8W4J8 1-267)
chain: MERDFLGLSDKQYLSNNVKHEVNDDAVEERGLSTKAAREWGKSKVFATSSFMPSSDFQEAKAFPGAYQWGSVSAANVFRRCQFGGAFQNATPLLLGGSVPLPTHPSLVPRVASSGSSPQLTIFYGGTISVFNDISPDKAQAIMLCAGNGLKGETGDSKPVREAERMYGKQIHNTAATSSSSATHTDNFSRCRDTPVAATNAMSMIESFNAAPRNMIPSVPQARKASLARFLEKRKERLMSAMPYKKMLLDLSTGESSGMNYSSTSPT
For B6, the binding entry in assay [3] was “binds”.

B7: GAL4-AD-JAZ4 (protein, UniProt Q58G47 1-310)
chain: MERDFLGLGSKLSPITVKEETNEDSAPSRGMMDWSFSSKVGSGPQFLSFGTSQQETRVNTVNDHLLSSAAMDQNQRTYFSSLQEDRVFPGSSQQDQTTITVSMSEPNYINSFINHQHLGGSPIMAPPVSVFPAPTTIRSSSKPLPPQLTIFYAGSVLVYQDIAPEKAQAIMLLAGNGPHAKPVSQPKPQKLVHHSLPTTDPPTMPPSFLPSISYIVSETRSSGSNGVTGLGPTKTKASLASTRNNQTAAFSMAPTVGLPQTRKASLARFLEKRKERVINVSPYYVDNKSSIDCRTLMSECVSCPPAHHLH
Turning to B7, the binding result in assay [3] is listed as “binds”.

B8: TIFY8-C1 (230 to 361aa) fused with GAL4-AD (domain or fragment, UniProt Q84MB2 230-361)
chain: KDLASSTKQMTIFYGGQAHVFDDVHPNKADVIMALAGSSGGSWSTGLSHKPKSKNNTSDGPYKLGQMYEGGSSKETPQMPPEFRARPSHQPTSSACHRIFTQPGREHQGSIISRGRDIRDPVHRSDPEKEAT
For the molecule B8, the binding entry in assay [3] is recorded as “binds”.

B9: TIFY8-C1 fused to one half of the yellow fluorescent protein (BiFC construct) (domain or fragment, UniProt Q84MB2 230-361)
chain: B8 chain
Regarding B9, in assay [4], the binding entry is “binds”.

B10: TIFY8-C (176 to 361aa) fused with GAL4-AD (domain or fragment, UniProt Q84MB2 176-361)
chain: SRFKDENVGPSVIAQTAADEGSRTGMKGPGILSSFTMPNSSKLESFAPSNTGNRKDLASSTKQMTIFYGGQAHVFDDVHPNKADVIMALAGSSGGSWSTGLSHKPKSKNNTSDGPYKLGQMYEGGSSKETPQMPPEFRARPSHQPTSSACHRIFTQPGREHQGSIISRGRDIRDPVHRSDPEKEAT
B10: the binding entry in assay [3] is “binds”.

B11: TIFY8-C fused to one half of the yellow fluorescent protein (BiFC construct) (domain or fragment, UniProt Q84MB2 176-361)
chain: B10 chain
As to B11, the binding result in assay [4] was “binds”.

B12: TIFY8-N1 (1 to 176aa) fused with GAL4-AD (domain or fragment, UniProt Q84MB2 1-176)
chain: MMVNHNNGQRPTDIDSRLRQTEQDKLLFHDFLGSKNPTLASTSMADHRLPPDNKAAKAAMTPSTASASSAGGLGGLSSTSDLVERHSGGGNHLDGIQLFGPRSDVSGSIMSNRFSGNKRSNSDSHFTTQEHPETLHWSKLLRNGPGSFSMNVNPLANQPPRGGGQISHLLHQLSTS
As for B12, the binding result in assay [3] is “no binding”.

The values are drawn from paper PMC9967580.
